A: 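Whole-cell assay for inhibitors of Mycobacterium tuberculosis growth, labelled Cornell in the record; the read-out is not stated. The concentration is filed as 10 mM, unlikely as a test dose, so the dose is not known. The record gives no direction; compounds strong in two other growth screens of this library score well above the rest, so higher reads as stronger inhibition. Of about 53,000 compounds tested this way, about 900 (1.7%) reached 50% or more in at least one test.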
B: 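Assay on Mycobacterium tuberculosis, filed only as a heat shock assay from Cornell; the read-out is not stated. The concentration is filed as 10 mM, unlikely as a test dose, so the dose is not known. Direction is inferred from retests: higher values go with stronger inhibition. Size under these conditions: about 69,000 compounds, about 930 of them at 50% or above in at least one test.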

Each number is a percent effect as filed.
How 0% and 100% were set is not recorded. Most values in the screen are low, and negative values occur.
The compounds are a random part of those screened.

* CC(=O)N1CCC2(CCN(CC3CCCCC3)C2)CC1 | B: 5.382%
* CCN(CC)c1ccc2ccc(C(=O)N(CCOC)CCOC)cn12.O=C(O)C(F)(F)F | A: 3.956%; B: 37.93%
* CCC(C)(C)NC(=O)CSCc1ccc(S(=O)(=O)N(C)C)o1 | A: 24.92%; B: 9.197%
* CC(C)c1nnc(NC(=O)N2CCCC2c2ccncc2)s1 (configuration not stated) | A: -4.521%; B: 17.76%
* O=C1C(Sc2nnnn2C2CC2)CCN1c1ccccc1Cl (configuration not stated) | A: 10.37%; B: -28.9%
* CN(Cc1ccco1)C(=O)NCC(c1cccs1)N(C)C (configuration not stated) | A: 15.52%; B: 0.2%
* CCN(Cc1nc(COC)no1)C(=O)CCNC(=O)c1ccccc1F | B: -10.88%
* O=C(Nc1cc(F)ccc1OCC1CCCO1)N1CCCC1 (configuration not stated) | A: 9.455%; B: -9.08%
* CCN(CC1CCOC1)C(=O)c1ccccc1S(C)(=O)=O (configuration not stated) | A: -7.204%; B: -9.666%
* CN(C)Cc1cccc(-c2cccnc2C(=O)NCc2cn(C)cn2)c1 | A: 22.94%; B: 14.67%
* CCc1c(C)nc(C2CCCN2C(=O)c2cc(C)no2)nc1O (configuration not stated) | A: -24.31%; B: -16.22%
* O=C(O)C(F)(F)F.O=C(c1cnccn1)N1CCCC2(COCCN(CC3CC3)C2)C1 (configuration not stated) | A: 4.596%; B: 3.027%
* [H][C@@]12CCN(C(=O)Cc3ccco3)C[C@]1([H])OCCNC2=O | A: -4.368%; B: -4.982%
* O=S(=O)(C1CC1)N1CCc2ncc(Cn3cccn3)n2CC1 | A: -36.76%; B: -6.28%
* Cc1ccc(N2CCC(CCN3CCCC3=O)CC2)nn1 | A: 2.429%; B: -31.97%
* Cc1cccc(-c2noc([C@@H]3Cc4nc[nH]c4CN3)n2)c1 | B: 22.63%
* CC(=O)N1CCCN(Cc2csc(-c3ncccn3)n2)CC1 | A: -7.079%; B: 1.291%
* Cc1ccccc1N1CC2(CCN(S(=O)(=O)c3cccs3)C2)CC1=O (configuration not stated) | A: 9.115%; B: -18.98%
* Cn1ncc2c(NCCCOc3cccnc3)nc(C3CCCC3)nc21 | A: -0.5342%; B: -21.12%
* Cc1cnn(CCNCC(O)COc2ccc(Cl)cc2Cl)c1 (configuration not stated) | B: -0.1861%
* Cc1cc(NCCO)nc(N2CCN(C)CC2)c1C#N | A: 5.149%; B: -10.47%
* Cc1ccccc1CN(C)C(=O)Cn1nc(-c2ccc(F)cc2)oc1=O | A: 0.7401%; B: -1.546%
* CCNC(=O)CNC(=O)c1nc(C2CC2)n(-c2ccccc2Cl)n1 | A: 6.719%; B: 7.219%
* CS(=O)(=O)c1ncc(CN2CCCC(C(N)=O)C2)n1CC1CCCCC1 (configuration not stated) | A: -32.65%; B: 4.685%
* O=C1CC2(CCSC2)C(=O)N1Cc1coc(-c2cccc(F)c2)n1 (configuration not stated) | A: 19.98%; B: -31.27%
* [H][C@]12CC[C@]([H])(CN(C(=O)Cc3cccnc3)C1)N(Cc1ccccc1)C2=O | B: -29.06%
* CC(=O)N1CCC(c2cccc(Oc3ccccc3)n2)CC1 | A: 12.71%; B: -16.76%
* Cc1csc(CN2CCC[C@]3(C[C@@H](OCC4CC4)CO3)C2)n1.O=C(O)C(F)(F)F | A: -18.37%; B: -12.68%
* [H][C@@]12CS(=O)(=O)C[C@]1([H])N(C(=O)NCCc1ccc(F)cc1)CCN2C | A: 41.78%; B: -9.495%
* CCCOc1cc(C)ccc1NC(=O)N(C)Cc1cnn(C)c1 | B: -5.27%
* Cc1cc(NS(=O)(=O)c2ccc(C(=O)O)cc2F)ccc1F | A: -39.67%; B: -1.607%
* O=c1[nH]c(NCc2cccc(OC(F)F)c2)nc2c1CCNC2 | A: 9.05%; B: -13.7%
* [H][C@@]12CC[C@@]([H])(C1)N(CCC(=O)N1CCN(c3cccc(Cl)c3)C(=O)C1)C2 | B: 4.57%
* O=S(=O)(CCO)Cc1ccc(OC(F)F)cc1 | A: 3.036%; B: 5.688%

Once more, the final 4:

* Cc1cc(NS(=O)(=O)c2ccc(C(=O)O)cc2F)ccc1F : A: -39.67%; B: -1.607%
* O=c1[nH]c(NCc2cccc(OC(F)F)c2)nc2c1CCNC2 : A: 9.05%; B: -13.7%
* [H][C@@]12CC[C@@]([H])(C1)N(CCC(=O)N1CCN(c3cccc(Cl)c3)C(=O)C1)C2 : B: 4.57%
* O=S(=O)(CCO)Cc1ccc(OC(F)F)cc1 : A: 3.036%; B: 5.688%

From ChEMBL document CHEMBL3988442, “University of Dundee, Small-Polar-MMV Screening Library” (2021).